Results reported in paper PMC5840266.
No constants are given. Whether binding was seen depends on the method and setting. Binding seen in cells or lysates may run through a third protein. Some results given as binding are weak or reduced against the parent protein; the word gives no strength.

The chains behind the UniProt entries cited, without tags or fusion partners.
UniProt Q9ULT8: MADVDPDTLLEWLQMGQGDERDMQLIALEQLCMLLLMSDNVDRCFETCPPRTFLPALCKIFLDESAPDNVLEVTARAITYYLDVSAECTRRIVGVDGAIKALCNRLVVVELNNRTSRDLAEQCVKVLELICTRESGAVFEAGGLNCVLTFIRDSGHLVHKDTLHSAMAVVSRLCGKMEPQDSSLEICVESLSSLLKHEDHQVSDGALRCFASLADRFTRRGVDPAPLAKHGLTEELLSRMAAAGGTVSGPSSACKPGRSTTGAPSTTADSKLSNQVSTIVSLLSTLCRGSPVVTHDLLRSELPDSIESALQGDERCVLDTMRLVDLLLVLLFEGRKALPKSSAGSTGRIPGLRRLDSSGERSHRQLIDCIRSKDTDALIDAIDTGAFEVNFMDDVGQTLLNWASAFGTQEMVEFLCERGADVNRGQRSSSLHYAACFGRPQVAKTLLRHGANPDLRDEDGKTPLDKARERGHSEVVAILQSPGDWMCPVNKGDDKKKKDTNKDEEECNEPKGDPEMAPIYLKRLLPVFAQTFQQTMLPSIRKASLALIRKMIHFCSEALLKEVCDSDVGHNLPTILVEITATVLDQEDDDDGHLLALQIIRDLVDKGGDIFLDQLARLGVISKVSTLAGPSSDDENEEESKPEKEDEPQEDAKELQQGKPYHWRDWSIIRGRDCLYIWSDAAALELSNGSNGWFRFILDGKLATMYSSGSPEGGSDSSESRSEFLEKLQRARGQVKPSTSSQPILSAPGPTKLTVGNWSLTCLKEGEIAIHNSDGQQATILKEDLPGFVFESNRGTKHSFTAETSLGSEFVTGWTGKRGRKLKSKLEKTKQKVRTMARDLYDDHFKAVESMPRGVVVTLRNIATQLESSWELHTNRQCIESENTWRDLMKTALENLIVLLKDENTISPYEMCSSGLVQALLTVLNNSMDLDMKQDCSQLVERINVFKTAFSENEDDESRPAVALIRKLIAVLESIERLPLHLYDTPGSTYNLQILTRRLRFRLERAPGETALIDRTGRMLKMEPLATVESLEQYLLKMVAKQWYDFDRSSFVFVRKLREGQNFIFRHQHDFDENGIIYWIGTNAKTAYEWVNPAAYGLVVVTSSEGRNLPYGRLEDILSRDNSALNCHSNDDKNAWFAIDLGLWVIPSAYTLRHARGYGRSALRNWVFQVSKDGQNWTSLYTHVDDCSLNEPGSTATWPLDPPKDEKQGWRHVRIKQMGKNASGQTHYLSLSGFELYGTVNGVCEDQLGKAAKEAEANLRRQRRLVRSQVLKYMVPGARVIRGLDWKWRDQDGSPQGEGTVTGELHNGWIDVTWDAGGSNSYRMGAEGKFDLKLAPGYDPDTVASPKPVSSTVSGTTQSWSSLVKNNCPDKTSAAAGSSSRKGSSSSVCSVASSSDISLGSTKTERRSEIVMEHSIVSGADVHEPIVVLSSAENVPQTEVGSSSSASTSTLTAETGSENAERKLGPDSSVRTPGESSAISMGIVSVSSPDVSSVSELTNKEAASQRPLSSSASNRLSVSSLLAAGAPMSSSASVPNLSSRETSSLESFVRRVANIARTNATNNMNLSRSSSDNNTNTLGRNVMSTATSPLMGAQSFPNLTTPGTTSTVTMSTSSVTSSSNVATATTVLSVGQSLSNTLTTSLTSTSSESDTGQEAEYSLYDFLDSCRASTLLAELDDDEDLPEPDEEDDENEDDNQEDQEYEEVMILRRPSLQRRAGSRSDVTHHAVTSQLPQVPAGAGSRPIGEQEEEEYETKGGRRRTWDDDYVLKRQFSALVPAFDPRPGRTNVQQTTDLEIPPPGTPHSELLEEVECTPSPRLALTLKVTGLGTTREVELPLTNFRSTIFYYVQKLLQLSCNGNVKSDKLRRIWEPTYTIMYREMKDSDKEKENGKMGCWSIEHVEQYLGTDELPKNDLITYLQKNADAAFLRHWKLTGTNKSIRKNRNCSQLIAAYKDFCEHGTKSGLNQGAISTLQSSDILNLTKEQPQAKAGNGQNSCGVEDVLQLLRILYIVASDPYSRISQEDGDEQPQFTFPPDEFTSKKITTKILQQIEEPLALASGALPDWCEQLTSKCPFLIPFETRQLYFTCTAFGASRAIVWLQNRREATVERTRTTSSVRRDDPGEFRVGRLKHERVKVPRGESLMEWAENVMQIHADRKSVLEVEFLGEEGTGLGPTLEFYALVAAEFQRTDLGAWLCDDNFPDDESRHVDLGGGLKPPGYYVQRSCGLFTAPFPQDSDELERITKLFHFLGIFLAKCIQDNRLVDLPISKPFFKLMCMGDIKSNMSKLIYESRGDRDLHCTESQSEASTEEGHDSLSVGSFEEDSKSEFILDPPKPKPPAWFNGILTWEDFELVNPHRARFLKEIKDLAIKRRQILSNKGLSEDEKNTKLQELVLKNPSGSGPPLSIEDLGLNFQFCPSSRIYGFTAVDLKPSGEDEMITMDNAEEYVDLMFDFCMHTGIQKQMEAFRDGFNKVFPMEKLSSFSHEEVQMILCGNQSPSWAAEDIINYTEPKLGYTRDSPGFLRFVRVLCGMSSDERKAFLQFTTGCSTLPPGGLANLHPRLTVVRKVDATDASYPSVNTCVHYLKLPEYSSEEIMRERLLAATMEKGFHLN
UniProt O00471: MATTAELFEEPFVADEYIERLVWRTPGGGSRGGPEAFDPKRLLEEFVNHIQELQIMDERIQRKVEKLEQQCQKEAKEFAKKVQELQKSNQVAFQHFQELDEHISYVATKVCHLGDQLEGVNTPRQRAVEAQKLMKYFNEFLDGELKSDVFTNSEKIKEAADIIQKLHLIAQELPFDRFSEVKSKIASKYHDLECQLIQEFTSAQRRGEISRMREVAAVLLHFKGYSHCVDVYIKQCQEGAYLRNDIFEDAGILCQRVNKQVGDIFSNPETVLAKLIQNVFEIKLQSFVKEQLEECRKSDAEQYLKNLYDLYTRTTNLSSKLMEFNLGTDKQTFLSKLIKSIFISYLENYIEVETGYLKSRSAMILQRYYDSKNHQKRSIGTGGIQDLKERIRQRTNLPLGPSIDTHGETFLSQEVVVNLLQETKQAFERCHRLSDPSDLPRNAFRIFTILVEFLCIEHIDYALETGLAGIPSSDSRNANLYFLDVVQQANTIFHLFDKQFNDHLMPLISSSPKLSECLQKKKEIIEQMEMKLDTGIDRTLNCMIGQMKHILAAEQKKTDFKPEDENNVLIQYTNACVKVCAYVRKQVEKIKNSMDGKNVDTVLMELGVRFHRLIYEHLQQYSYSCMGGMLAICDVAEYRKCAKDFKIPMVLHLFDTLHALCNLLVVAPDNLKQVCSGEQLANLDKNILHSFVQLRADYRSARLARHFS
UniProt O43242: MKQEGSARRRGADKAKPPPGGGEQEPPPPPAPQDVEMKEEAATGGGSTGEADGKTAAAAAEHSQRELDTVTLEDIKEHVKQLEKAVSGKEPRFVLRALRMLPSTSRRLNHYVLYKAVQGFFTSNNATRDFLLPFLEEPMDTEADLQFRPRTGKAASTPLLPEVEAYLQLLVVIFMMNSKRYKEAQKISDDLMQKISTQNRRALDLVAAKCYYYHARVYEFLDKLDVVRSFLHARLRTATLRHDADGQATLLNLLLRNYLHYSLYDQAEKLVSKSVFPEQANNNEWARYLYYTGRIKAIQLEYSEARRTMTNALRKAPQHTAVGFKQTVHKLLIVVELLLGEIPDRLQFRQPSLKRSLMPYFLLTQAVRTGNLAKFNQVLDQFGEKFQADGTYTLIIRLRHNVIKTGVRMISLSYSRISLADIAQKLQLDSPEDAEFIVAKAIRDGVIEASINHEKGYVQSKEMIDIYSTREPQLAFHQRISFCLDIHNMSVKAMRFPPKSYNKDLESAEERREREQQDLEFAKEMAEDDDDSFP

Assays:
[1] = molecular target: HECTD1 (human (endogenous in H9 hESCs)) (UniProt Q9ULT8); test: co-IP; co-IP with HECTD1, RNF181 and FLAG (control) antibodies in H9 hESCs followed by western blot against EXOC5 and PSMD3
[2] = molecular target: T1, RNF181 (human (endogenous in H9 hESCs)) (UniProt Q9P0P0); test: as above
T1 sequence: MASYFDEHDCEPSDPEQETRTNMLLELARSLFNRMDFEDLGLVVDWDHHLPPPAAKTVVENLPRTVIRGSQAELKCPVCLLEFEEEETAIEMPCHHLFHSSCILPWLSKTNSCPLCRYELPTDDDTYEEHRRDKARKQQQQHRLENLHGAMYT

Substance	binding [1]	binding [2]
EXOC5 (from UniProt O00471 1-708)	binds	
PSMD3 (from UniProt O43242 1-534)		binds
